These results are taken from patent US20200325505A1, “FILAMENTOUS FUNGI CAPABLE OF PRODUCING VERY LONG CHAIN FATTY ACIDS” (UT-Battelle, LLC, priority 2019, published 2020).

Molecules are shown by their SMILES.

Data set [1] deals with Mortierella elongata AG77. Put plainly: Nitrogen source utilisation in Biolog 96-well plates, formazan formation after tetrazolium addition. To be noted: compound as nitrogen source. Format: cell-based. Here is the method:
Two 300 mL volumes of growth medium comprising 1 g/L KH2PO4, 1 g/L MgSO4 7H2O, 0.1 g/L CaCl2, 0.02 g/L FeNaEDTA, 0.1 g/L NaCl, and either 1 g/L NH4NO3 or 20 g/L sucrose were prepared. […] Aliquots of 200 μL of carbon-free medium or nitrogen-free medium were pipetted into each well of a set of 96-well plates previously prepared with lyophilized putative carbon or nitrogen sources (Biolog Inc., Hayward, Calif.). Inocula were prepared by perforating a culture of Mortierella elongata AG77 grown on 20 g/L potato dextrose agar with a 3 mm diameter cork borer and separating the surface mycelial mat from the solid growth medium using tweezers. Each well was inoculated with one inoculum. Cultures were incubated at 21° C. for 24 hours to allow metabolic changes to stabilize, and then 100 μL of 3 g/L tetrazolium chloride in water was added to each well.
Conclusions were based on rate and intensity of formazan formation using the 3-(4,5-dimethylthiazol-2-yl)-2,5-diphenyltetrazolium bromide ([…]) assay. “Metabolized” indicates more formazan formation than a control containing no nitrogen source, and “Toxic” indicates less formazan formation than a control containing no nitrogen source, “Metabolized” and “Toxic” assignments are mutually exclusive. In this example, a compound may be “Metabolized” or “Toxic,” but not both.

Data set [2] relates to Mortierella elongata AG77. Put plainly: Carbon source utilisation in Biolog 96-well plates, formazan formation after tetrazolium addition. Format: cell-based. Here is the method: Two 300 mL volumes of growth medium comprising 1 g/L KH2PO4, 1 g/L MgSO4 7H2O, 0.1 g/L CaCl2, 0.02 g/L FeNaEDTA, 0.1 g/L NaCl, and either 1 g/L NH4NO3 or 20 g/L sucrose were prepared. Acidity was adjusted to 5.5 using NaOH and volumes of growth medium were autoclaved 30 min at 121° C. to sterilize. Aliquots of 200 μL of carbon-free medium or nitrogen-free medium were pipetted into each well of a set of 96-well plates previously prepared with lyophilized putative carbon or nitrogen sources (Biolog Inc., Hayward, Calif.). Inocula were prepared by perforating a culture of Mortierella elongata AG77 grown on 20 g/L potato dextrose agar with a 3 mm diameter cork borer and separating the surface mycelial mat from the solid growth medium using tweezers. Each well was inoculated with one inoculum. Cultures were incubated at 21° C. for 24 hours to allow metabolic changes to stabilize, and then 100 μL of 3 g/L tetrazolium chloride in water was added to each well. Formazan formation was observed visually at 2 h, 24 h, and 148 h.
Conclusions were based on rate and intensity of formazan formation using the 3-4,5-dimethylthiazol-2-yl)-2,5-diphenyltetrazolium bromide (MTT) assay. “Metabolized” indicates more formazan formation than a control containing no carbon source, and “Toxic” indicates less formazan formation than a control containing no carbon source. “Metabolized” and “Toxic” assignments are mutually exclusive. In this example, a compound may be “Metabolized” or “Toxic,” but not both.

As for `NCCC[C@H](N)C(=O)O` [L-Ornithine], the Metabolized result in data set [1] (Metabolized = more formazan formation than a control containing no nitrogen source, observed visually at 2 h, 24 h, 148 h) is given as “no”; in data set [2] (compound as carbon source, Metabolized = more formazan formation than a control containing no carbon source, observed visually at 2 h, 24 h, 148 h), “yes”. Besides, the Toxic entry was “no” in data set [1] (Toxic = less formazan formation than a control containing no nitrogen source) and “no” in data set [2] (compound as carbon source, Toxic = less formazan formation than a control containing no carbon source). Besides, the “Carbon sources that Mortierella elongata AG77 can metabolize” value in data set [2] (summary of Table 3) is reported as “can metabolize”.
